In experiment [1] the target is T1, GST–FHL1 (recombinant mouse four-and-a-half LIM domains protein 1 fused to GST) (mouse) (UniProt P97447).
T1 sequence: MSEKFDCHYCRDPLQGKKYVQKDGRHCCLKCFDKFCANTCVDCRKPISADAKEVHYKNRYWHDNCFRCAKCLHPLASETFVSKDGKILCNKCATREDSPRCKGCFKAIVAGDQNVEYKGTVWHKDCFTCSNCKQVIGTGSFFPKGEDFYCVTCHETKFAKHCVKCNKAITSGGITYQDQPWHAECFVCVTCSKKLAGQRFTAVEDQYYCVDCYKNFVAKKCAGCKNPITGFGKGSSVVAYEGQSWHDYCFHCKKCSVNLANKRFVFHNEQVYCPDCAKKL
As to the kind of experiment: pull-down; 5 μg GST–FHL1, GST–FHL2 or GST pre-bound to glutathione–Sepharose 4B beads; lysates of ARVMs transduced with AdV:wtPKD1 (vehicle or 100 nM PMA, 10 min); 2 h, 4°C; 50 mM Tris/HCl pH 7.4, 0.05 mM ZnCl2, 2 mM DTT, 1% Triton X-100; immunoblot with total and phospho-specific PKD antibodies; only the target purified.

The target in experiment [2] is T2, GST–FHL2 (recombinant human four-and-a-half LIM domains protein 2 fused to GST) (human) (UniProt Q14192).
T2 sequence: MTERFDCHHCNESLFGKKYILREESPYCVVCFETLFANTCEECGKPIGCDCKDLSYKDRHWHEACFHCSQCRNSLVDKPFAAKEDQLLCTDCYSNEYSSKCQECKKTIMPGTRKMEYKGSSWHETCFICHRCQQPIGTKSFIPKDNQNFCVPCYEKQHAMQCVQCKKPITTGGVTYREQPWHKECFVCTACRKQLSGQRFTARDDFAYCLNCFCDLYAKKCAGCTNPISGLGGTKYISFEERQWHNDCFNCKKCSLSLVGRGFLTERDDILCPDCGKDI
The description is as above.

In experiment [3] the target is T1, GST–FHL1 (recombinant mouse four-and-a-half LIM domains protein 1 fused to GST) (mouse). As to the kind of experiment: pull-down; 5 μg GST–FHL1, GST–FHL2 or GST pre-bound to glutathione–Sepharose 4B beads; lysates of NRVMs (vehicle or 10 nM ET1, 10 min), endogenous PKD; 2 h, 4°C; 50 mM Tris/HCl pH 7.4, 0.05 mM ZnCl2, 2 mM DTT, 1% Triton X-100; immunoblot with total and phospho-specific PKD antibodies; only the target purified.

Experiment [4] has as its target T2, GST–FHL2 (recombinant human four-and-a-half LIM domains protein 2 fused to GST) (human). Described as above.

Results are given in words; binding and its absence hold for the method and conditions named. In cells and extracts the contact can be indirect. Some results given as binding are weak or reduced against the parent protein; the word gives no strength. Where a sequence is shown, tags or fusion partners need not be part of it.

B1: mouse PKD1 (protein kinase D1) heterologously expressed in ARVMs (AdV:wtPKD1) (enzyme, UniProt Q62101 1-918)
chain: MSVPPLLRPPSPLLPAAAAVAAAAAALVPGSGPAPFPAPGAAPAGGISFHLQIGLSREPVLLLQDSSGDYSLAHVREMACSIVDQKFPECGFYGLYDKILLFRHDPASDNILQLVKIASDIQEGDLIEVVLSASATFEDFQIRPHALFVHSYRAPAFCDHCGEMLWGLVRQGLKCEGCGLNYHKRCAFKIPNNCSGVRRRRLSNVSLTGLGTVRTASAEFSTSVPDEPLLSPVSPGFEQKSPSESFIGREKRSNSQSYIGRPIQLDKLLMSKVKVPHTFVIHSYTRPTVCQFCKKLLKGLFRQGLQCKDCRFNCHKRCAPKVPNNCLGEVTINGELLSPGAESDVVMEEGSDDNDSERNSGLMDDMDEAMVQDTEMALAEGQSGGAEMQDPDADQEDSNRTISPSTSNNIPLMRVVQSVKHTKRRSSTVMKEGWMVHYTSKDTLRKRHYWRLDSKCITLFQNDTGSRYYKEIPLSEILCLEPAKPSALTPVGATPHCFEITTANVVYYVGENVVNPSSSPPNNSVLPSGIGPDVARMWEVAIQHALMPVIPKGSSVGSGSNSHKDISVSISVSNCQIQENVDISTVYQIFPDEVLGSGQFGIVYGGKHRKTGRDVAIKIIDKLRFPTKQESQLRNEVAILQNLHHPGVVNLECMFETPERVFVVMEKLHGDMLEMILSSEKGRLPEHITKFLITQILVALRHLHFKNIVHCDLKPENVLLASADPFPQVKLCDFGFARIIGEKSFRRSVVGTPAYLAPEVLRNKGYNRSLDMWSVGVIIYVSLSGTFPFNEDEDIHDQIQNAAFMYPPNPWKEISHEAIDLINNLLQVKMRKRYSVDKTLSHPWLQDYQTWLDLRELECRIGERYITHESDDSRWEQYAGEQGLQYPAHLISLSASHSDSPEAEEREMKALSERVSIL
modifications: phosphorylated at Ser744/Ser748 and Ser916 after PMA treatment of the cells
Take B1: the binding result in experiment [1] and in experiment [2] was “binds” each time.

B2: endogenous PKD1 (protein kinase D1) of NRVMs (enzyme, UniProt Q9WTQ1 1-918)
chain: MSAPPLLRPPSPLLPAAAAVAAAAAALVPGSGPAPFPAPGAAPAGGISFHLQIGLSREPVLLLQDSSGDYSLAHVREMACSIVDQKFPECGFYGLYDKILLFRHDPASENILQLVKIASDIQEGDLIEVVLSASATFEDFQIRPHALFVHSYRAPAFCDHCGEMLWGLVRQGLKCEGCGLNYHKRCAFKIPNNCSGVRRRRLSNVSLTGLGTVRTASAEFSTSAPDEPLLSPVSPGFEQKSPSESFIGREKRSNSQSYVGRPIQLDKLLMSKVKVPHTFVIHSYTRPTVCQFCKKLLKGLFRQGLQCKDCRFNCHKRCAPKVPNNCLGEVTINGELLSPGAESDVVMEEGSDDNDSERNSGLMDDMDEAMVQDTEMALAEGQSDGAEMQDPDADQEDSNRTISPSTSNNIPLMRVVQSVKHTKRRSSTVMKEGWMVHYTSKDTLRKRHYWRLDSKSITLFQNDTGSRYYKEIPLSEILCLEPAKPSALIPTGANPHCFEITTANVVYYVGENVVNPSSPPPNNSVPPSGIGTDVARMWEVAIQHALMPVIPKGSSVGSGTNSHKDISVSISVSNSQIQENVDISTVYQIFPDEVLGSGQFGIVYGGKHRKTGRDVAIKIIDKLRFPTKQESQLRNEVAILQNLHHPGVVNLECMFETPERVFVVMEKLHGDMLEMILSSEKGRLPEHITKFLITQILVALRHLHFKNIVHCDLKPENVLLASADPFPQVKLCDFGFARIIGEKSFRRSVVGTPAYLAPEVLRNKGYNRSLDMWSVGVIIYVSLSGTFPFNEDEDIHDQIQNAAFMYPPNPWKEISHEAIDLINNLLQVKMRKRYSVDKTLSHPWLQDYQTWLDLRELECRIGERYITHESDDSRWEQYAGEQGLQYPAHLINLSASHGDSPEAEEREMKALSERVSIL
modifications: phosphorylated at Ser744/Ser748 and Ser916 after ET1 treatment of the cells
Consider B2, for which the binding result in experiment [3] and in experiment [4] was “binds” throughout.

These data come from PMC3927927.
